PubChem BioAssay AID504791 – Drosophila RNAi Screening Center | 2011
Aim: 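Factors in Argonaute-based small RNA production and activity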 (primary screen). Cell system: Drosophila S2-derived reporter cells. Knock-down reagent: long dsRNA against Drosophila genes, about 150-250 ng dsRNA per well (siRNA assay); about 80-120 ng (miRNA assay). Time to read-out: about 5 days (siRNA assay); about 4 days (miRNA assay). Conditions: copper sulfate induction of reporters: 25 µM (siRNA assay); 200 mM stated (miRNA assay), 1-2 days before reading. Detection: 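Per-well ratio of Renilla over firefly light, expressed relative to that plate's average ratio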. Call rule: 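First-pass picks had plate-scaled ratios over 1.5 for the siRNA assay, over 1.6 for the miRNA assay, or under 0.6; two distinct dsRNAs had to score alike on retest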.
In all, the deposit lists about 23,000 reagents; below is a random part of those that have a named target and a result. Over the whole deposit, 199 (0.86%) got an active call. 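Plate-scaled ratios behind the calls are not deposited; printed light signals are raw; many rows marked increased or decreased are still called inactive.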 Unmarked entries are inactive. No sequences are given here. The record does not give: the direction of the score.

| target | amplicon | stable siRNA reporter change | stable assay Renilla, run 1 (luminescence) | stable assay firefly, run 1 (luminescence) |
| --- | --- | --- | --- | --- |
| CG13032 | DRSC09912 | – | 7543 | 3.46e5 |
| Mco4 (Multicopper oxidase 4) | DRSC20061 | – | 5092 | 3.79e5 |
| CG13203 | DRSC06327 | – | 6552 | 3.10e5 |
| Cht10 (Chitinase 10) | DRSC03766 | – | 7591 | 4.27e5 |
| Cht10 (Chitinase 10) | DRSC03767 | – | 1.23e5 | 2.84e5 |
| Cht10 (Chitinase 10) | DRSC03768 | – | 7586 | 4.29e5 |
| WDR79 (WD repeat domain 79) | DRSC03159 | reporter ratio raised past the hit cutoff (active) | 14043 | 9.60e5 |
| Psf1 (Partner of Sld Five 1) | DRSC08638 | – | 5726 | 5.28e5 |
| cv-d (crossveinless d) | DRSC16522 | reporter ratio lowered past the hit cutoff | 7559 | 4.91e5 |
| cv-d (crossveinless d) | DRSC16524 | – | 6926 | 3.47e5 |
| cv-d (crossveinless d) | DRSC16526 | – | 6787 | 3.25e5 |
| CR42785 (pseudo) | DRSC04962 | – | 5140 | 4.38e5 |
| Optix | DRSC05078 | – | 5248 | 3.97e5 |
| Optix | DRSC07484 | – | 7903 | 4.85e5 |
| Optix | DRSC21963 | – | 9699 | 5.34e5 |
| sunz (sungrazer) | DRSC12559 | – | 7588 | 4.50e5 |
| Acsx3 (Acyl-CoA synthetase X3) | DRSC14309 | – | 8660 | 3.94e5 |

An excerpt from the list above, as a working copy:
| target | amplicon | stable siRNA reporter change | stable assay Renilla, run 1 (luminescence) | stable assay firefly, run 1 (luminescence) |
| --- | --- | --- | --- | --- |
| Mco4 (Multicopper oxidase 4) | DRSC20061 | – | 5092 | 3.79e5 |
| CG13203 | DRSC06327 | – | 6552 | 3.10e5 |

The results go on:
| target | amplicon | stable siRNA reporter change | stable assay Renilla, run 1 (luminescence) | stable assay firefly, run 1 (luminescence) |
| --- | --- | --- | --- | --- |
| WRNexo (WRN exonuclease) | DRSC16278 | – | 8618 | 3.05e5 |
| ppk12 (pickpocket 12) | DRSC04086 | – | 7231 | 4.90e5 |
| Ugt304A1 (UDP-glycosyltransferase family 304 member A1) | DRSC15127 | – | 6475 | 3.68e5 |
| out (outsiders) | DRSC19347 | – | 7299 | 3.58e5 |
| CG14636 | DRSC12223 | – | 7492 | 3.83e5 |
| mab-21 | DRSC18791 | – | 6339 | 5.11e5 |
| ICA69 (Islet cell autoantigen 69 kDa) | DRSC11621 | – | 9667 | 3.62e5 |
| SP (Sex Peptide) | DRSC09664 | – | 5151 | 3.05e5 |
| pira (pirate) | DRSC19494 | – | 5663 | 4.18e5 |
| SmydA-4 (SET and MYND domain containing, arthropod-specific, member 4) | DRSC19390 | – | 4740 | 3.74e5 |
| SmydA-4 (SET and MYND domain containing, arthropod-specific, member 4) | DRSC21866 | – | 10444 | 8.15e5 |
| ppk22 (pickpocket 22) | DRSC22093 | – | 10149 | 5.86e5 |
| nmo (nemo) | DRSC08902 | – | 5735 | 4.53e5 |
| nmo (nemo) | DRSC11377 | – | 6068 | 3.21e5 |
| CG5065 | DRSC06912 | – | 5659 | 2.71e5 |
| brp (bruchpilot) | DRSC06245 | – | 5447 | 3.24e5 |
| brp (bruchpilot) | DRSC06246 | – | 6552 | 3.34e5 |
| brp (bruchpilot) | DRSC06801 | – | 6287 | 3.43e5 |
| brp (bruchpilot) | DRSC21893 | – | 8299 | 6.65e5 |
